For assay [1], the target named is ATP synthase beta (human) (UniProt P06576). Nature of the assay: anti-FLAG immunoprecipitation from HEK 293 T lysate, western blot with anti-ATPB antibody. Background: In western blotting, separated proteins are transferred to a membrane and probed.
Assay [2] addresses C1QBP (Q Subcomponent Binding Protein) (UniProt Q07021). The experiment in a line: immunoprecipitation, western blot with anti-C1QBP antibody (Santa Cruz).
A further assay deals with T1, peroxiredoxin (UniProt Q06830).
T1 sequence (looked up): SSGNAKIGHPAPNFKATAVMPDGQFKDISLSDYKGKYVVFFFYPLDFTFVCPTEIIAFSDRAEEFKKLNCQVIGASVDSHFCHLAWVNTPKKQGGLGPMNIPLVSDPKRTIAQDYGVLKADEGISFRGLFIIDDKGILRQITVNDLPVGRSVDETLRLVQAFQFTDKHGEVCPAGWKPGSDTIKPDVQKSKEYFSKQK
Nature of the assay: immunoprecipitation, western blot with anti-peroxiredoxin antibody.

By UniProt entry, the sequences of proteins in these tests, tags left out. Residues count along the entry.
UniProt Q07021, residues 74-282: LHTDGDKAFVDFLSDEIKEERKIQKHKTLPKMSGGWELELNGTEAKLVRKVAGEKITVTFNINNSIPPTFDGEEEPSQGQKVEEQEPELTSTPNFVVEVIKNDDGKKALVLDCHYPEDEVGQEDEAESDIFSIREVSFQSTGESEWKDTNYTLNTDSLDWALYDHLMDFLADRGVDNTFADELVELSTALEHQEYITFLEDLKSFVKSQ

The text below walks through data of US20190049459A1 (TOKYO INSTITUTE OF TECHNOLOGY, published 2019).

These are yes or no findings as the source states them, for the method shown. Some entries that bind do so weakly or less than the wild type. Where a sequence is shown, tags or fusion partners need not be part of it.

B1: FLAG-tagged uORF44p (protein derived from uORF44, an upstream ORF in the mRNA of ARHGEF9) (other, not shown: small tags and cut ends)
chain: MDSLTEQRLTSPNLPAPHLEHYSVLHCTMTLDVQTVVVFAVIVVLLLVNVILMFFLGTR
notes: Expressed from a pcDNA3 FLAG vector in HEK 293 T cells; also called uORF44 protein; mental activity-related protein
B1: in assay [1], the binding result is “no binding”.
As to MRKGARRLCPAARVSMERRRPRLLRRRLRQWRWRPFLKKWTSSPPHTGG (peptide, not shown: small tags and cut ends) [FLAG-tagged ouORF21p (protein derived from ouORF21)], in assay [2], the binding entry was “binds”.

B2: FLAG-tagged ouORF7p (protein derived from ouORF7) (protein, not shown: small tags and cut ends)
chain: MSAGRASGALSRTRTPLEPEPQQKPEPEPNHRCSPLNPGGALARARPPGPHVGTTA
On to B2, for which, in the assay with peroxiredoxin, the binding result is listed as “binds”.
